Test results from PubChem BioAssay AID540276 (National Center for Advancing Translational Sciences (NCATS), 2011).
In all, about 300,000 compounds went through this assay and about 5,400 (1.8%) were called active. Inconclusive results, whose numbers are uncertain, are shown with a selection of clear calls. The call rests on the fitted dose curve; tested in HEK293 cells. Potencies of inconclusive entries are doubtful fits and often do not repeat.

Assay: qHTS for inhibitors of binding or entry into cells for Marburg Virus
Details: Marburg virus pseudotyped entry inhibition, cell reporter; activity change, negative = inhibition: at 37.8 µM (top of the series) unless noted
On the % scale 0 is the no-effect control and ±100 the full control effect; potency means the concentration at half of the fitted maximal effect.

SMILES	Potency	activity change, negative = inhibition
Cc1ccn2c(CN3CCOCC3)c(-c3ccccc3)nc2c1	inconclusive: 3.16 µM [activator, single point]	–
CC(=O)c1cccc(NC(=O)C2CC(=O)N(CCc3ccccc3)C2)c1 (stereo not drawn)	inconclusive: 3.55 µM [inhibitor, partial curve, poor fit]	–
COC(=O)CCCCC1SCC2NC(=O)NC21O (stereo not drawn)	inconclusive: 0.251 µM [activator, partial curve, poor fit]	–
CCC(Oc1ccccc1)C(=O)Nc1ccccc1N1CCCC1 (stereo not drawn)	inconclusive: 22.4 µM [inhibitor, single point]	–
Cn1c(SCC(=O)Nc2ccc(Cl)cc2F)nnc1-c1ccco1	inconclusive: 8.91 µM [activator, partial curve, poor fit]	–
COc1ccccc1Oc1nc(-c2ccccc2)cc(C)c1S(C)(=O)=O	inconclusive: 22.4 µM [inhibitor, single point]	–
Cc1c(Cl)c(C(=O)NC2CCCC2)nn1C	inconclusive: 29.1 µM [activator, single point]	–
CCc1noc(C)c1C(=O)Nc1ccccc1N1CCOCC1	–	inactive: 0.369%
CCCC/C=C1\CCc2c([nH]c3ccccc23)C1=O	–	inactive: 19% [at 46.1 µM]
O=C(Nc1cccc(C(=O)O)c1)/C(=C\C=C\c1ccccc1)NC(=O)c1ccccc1	–	inactive: 22.3% [at 46.1 µM]
CCOC(=O)c1c(C)[nH]c(C(=O)CSc2nnnn2-c2ccc(C)cc2)c1C	inconclusive: 23.1 µM [inhibitor, partial curve, poor fit]	–
O=C(NCC1CCCCC1)c1cccc(-c2ccc(O)cc2)c1	inconclusive: 12.6 µM [inhibitor, partial curve, poor fit]	–
CCCCC(=O)NC(NC(=S)N1CCOCC1)C(Cl)(Cl)Cl (stereo not drawn)	–	inactive: -1.42%
Cc1cccc2sc(NNC(=O)c3cc(-c4cccs4)nc4ccccc34)nc12	–	inactive: -68.8%
O=C(NC1CCCC1)c1ccc(Br)c(S(=O)(=O)N2CCCCC2)c1	inconclusive: 4.47 µM [inhibitor, single point]	–
Cc1nc(NCCc2ccc(S(N)(=O)=O)cc2)c2c3c(sc2n1)CCC3	inconclusive: 20.6 µM [inhibitor, single point]	–
COC(=O)c1ccc(Sc2ccc(Cl)cc2)c(N)c1	inconclusive: 32.6 µM [activator, partial curve, poor fit]	–
Brc1ccc(-c2nnc(-c3ccco3)o2)cc1	–	inactive: -2.85%
COc1ccc(C(c2nnnn2C(C)C)N2CCN(C(=O)c3ccco3)CC2)cc1 (stereo not drawn)	inconclusive: 0.562 µM [activator, full curve, poor fit]	–
COC(=O)CN(c1nc(C)c(Br)c(OC)n1)S(=O)(=O)c1ccc(C)cc1	inconclusive: 3.98 µM [inhibitor, partial curve]	–
CN1CCc2c(sc(NC(=O)c3ccc([N+](=O)[O-])o3)c2C(N)=O)C1	inconclusive: 1.78 µM [inhibitor, partial curve, poor fit]	–
CN1c2ccccc2C(C)(C)C12CCCC(=O)N2 (stereo not drawn)	inconclusive: 0.794 µM [activator, single point]	–
CCSc1nc2nc(C)cc(C)n2n1	–	inactive: 9.28%

SMILES	Potency	activity change, negative = inhibition
Cc1ccc(S(=O)(=O)CC(=O)Nc2cccc(C)n2)cc1	inconclusive: 15.8 µM [inhibitor, single point]	–
CCCn1nnc(NC(=O)c2cccc(OCC(C)C)c2)n1	–	inactive: 7.95%
CCOc1ccc(-n2c(SCC(=O)Nc3ccc(OC)cc3OC)nc3c(c2=O)SCC3)cc1	inconclusive: 2.24 µM [inhibitor, full curve, poor fit]	–
CCOc1ccc(CNCc2c(C(=O)O)c(C)n(Cc3ccc(C)cc3)c2C)cc1	–	inactive: 2.84% [at 46.1 µM]
CCCCN1C(=O)c2ccc(C(=O)Nc3ccc(C)c(S(=O)(=O)N(C)C)c3)cc2C1=O	inconclusive: 11.2 µM [inhibitor, single point]	–
CCCCN(C(=O)c1ccc2c(c1)OCO2)c1ccccc1	inconclusive: 35.5 µM [inhibitor, single point]	–
CCNC(=S)Nc1cc(C(=O)N2CCCC2)ccc1N1CCCC1	–	inactive: -13.1% [at 46.1 µM]
Cc1ccccc1Nc1c(N)c(=O)oc2ccccc12	–	inactive: -5.15%
Cc1ccc(CO/N=C/C2=C(Cl)c3ccccc3CC2)cc1	inconclusive: 0.199 µM [activator, full curve, poor fit]	–
COc1ccc(C(c2c(NC(=O)c3ccccc3)sc(C)c2C)N2CCN(CCO)CC2)cc1 (stereo not drawn)	inconclusive: 0.562 µM [inhibitor, partial curve, poor fit]	–
Cc1cc(C)cc(NC(=O)CN2CCCN(S(=O)(=O)c3ccc(Br)s3)CC2)c1	inconclusive: 10.3 µM [inhibitor, partial curve]	–
Cc1cc(=O)oc2cc(NC(=O)CCC(=O)O)ccc12	–	inactive: 25.8%
CC1CCN(c2nc(-c3ccncc3)nc3ccccc23)CC1	inconclusive: 35.5 µM [inhibitor, single point]	–
COc1cc2cc(C(c3nnnn3C3CCCC3)N3CCCCCC3)c(=O)[nH]c2cc1OC (stereo not drawn)	–	inactive: -10.3%
Cn1nc(/C=C/c2ccccc2)ccc1=O	inconclusive: 6.31 µM [activator, single point]	–
O=S(=O)(NCC(c1cccnc1)N1CCN(c2ccccc2F)CC1)c1cccs1 (stereo not drawn)	–	inactive: 1.53%
Cc1ccc(-c2nn(-c3ccccc3)cc2/C=C/C(=O)Nc2nccs2)cc1	inconclusive: 7.94 µM [inhibitor, partial curve, poor fit]	–
Cc1cc(-c2n[nH]c(=S)n2/N=C/c2cc([N+](=O)[O-])ccc2Cl)n[nH]1	inconclusive: 1.26 µM [activator, single point]	–
O=S(=O)(c1ccc(F)cc1)N1CN(Cc2ccco2)c2nc3ccccc3nc21	inconclusive: 29.1 µM [inhibitor, single point]	–
CC(=O)c1cccc(NCC(=O)Nc2cccc(S(=O)(=O)N3CCCCC3)c2)c1	inconclusive: 20 µM [inhibitor, partial curve, poor fit]	–
Cc1ccc(-c2nc3ccccc3o2)cc1NC(=O)Cc1cccs1	–	inactive: 11.5%
CCN(CC)CCN1C(=O)C2C(C(=O)Nc3cccc(SC)c3)C3C=CC2(O3)C1C(=O)NC1CCCC(C)C1C (stereo not drawn)	inconclusive: 10 µM [inhibitor, partial curve]	–
O=C(CN1C(=O)c2cccc3cccc1c23)N1CCN(c2cccc(Cl)c2)CC1	inconclusive: 6.31 µM [activator, single point]	–

12 consecutive entries from above:
SMILES	Potency	activity change, negative = inhibition
CCOc1ccc(-n2c(SCC(=O)Nc3ccc(OC)cc3OC)nc3c(c2=O)SCC3)cc1	inconclusive: 2.24 µM [inhibitor, full curve, poor fit]	–
CCOc1ccc(CNCc2c(C(=O)O)c(C)n(Cc3ccc(C)cc3)c2C)cc1	–	inactive: 2.84% [at 46.1 µM]
CCCCN1C(=O)c2ccc(C(=O)Nc3ccc(C)c(S(=O)(=O)N(C)C)c3)cc2C1=O	inconclusive: 11.2 µM [inhibitor, single point]	–
CCCCN(C(=O)c1ccc2c(c1)OCO2)c1ccccc1	inconclusive: 35.5 µM [inhibitor, single point]	–
CCNC(=S)Nc1cc(C(=O)N2CCCC2)ccc1N1CCCC1	–	inactive: -13.1% [at 46.1 µM]
Cc1ccccc1Nc1c(N)c(=O)oc2ccccc12	–	inactive: -5.15%
Cc1ccc(CO/N=C/C2=C(Cl)c3ccccc3CC2)cc1	inconclusive: 0.199 µM [activator, full curve, poor fit]	–
COc1ccc(C(c2c(NC(=O)c3ccccc3)sc(C)c2C)N2CCN(CCO)CC2)cc1 (stereo not drawn)	inconclusive: 0.562 µM [inhibitor, partial curve, poor fit]	–
Cc1cc(C)cc(NC(=O)CN2CCCN(S(=O)(=O)c3ccc(Br)s3)CC2)c1	inconclusive: 10.3 µM [inhibitor, partial curve]	–
Cc1cc(=O)oc2cc(NC(=O)CCC(=O)O)ccc12	–	inactive: 25.8%
CC1CCN(c2nc(-c3ccncc3)nc3ccccc23)CC1	inconclusive: 35.5 µM [inhibitor, single point]	–
COc1cc2cc(C(c3nnnn3C3CCCC3)N3CCCCCC3)c(=O)[nH]c2cc1OC (stereo not drawn)	–	inactive: -10.3%

Following part.

SMILES	Potency	activity change, negative = inhibition
O=C(N[C@@H](Cc1ccccc1)C(=O)N1CCC2(CC1)NCCc1[nH]cnc12)c1cccc(F)c1	inconclusive: 10 µM [inhibitor, partial curve, poor fit]	–
O=C(Nc1cccc(S(=O)(=O)NC2=NCCCCC2)c1)c1cc(-c2ccc(Cl)cc2)nc2ccccc12	inconclusive: 10 µM [inhibitor, partial curve, poor fit]	–
Cc1ccc(O)c(C(=O)c2coc(=N)c(C(=O)NC(C)C)c2)c1	–	inactive: -11%
COc1ccc(S(=O)(=O)CCC(=O)N2CCN(c3ccc(C(C)=O)cc3)CC2)cc1	inconclusive: 6.31 µM [activator, partial curve, poor fit]	–
CCOC(=O)c1cn(-c2c(C)n(C)n(-c3ccccc3)c2=O)c2c(F)c(F)c(F)cc2c1=O	–	inactive: -16.1% [at 46.1 µM]
COC(=O)c1ccc(NS(=O)(=O)c2ccc3c(c2)n(C)c(=O)n3C)cc1	–	inactive: -2.4%
CCc1c(C)[nH]c(=S)c(C#N)c1C	inconclusive: 3.16 µM [inhibitor, partial curve]	–
CCNc1nc(Oc2ccc(F)cc2)cc(C(F)(F)F)n1	inconclusive: 5.62 µM [activator, single point]	–
COc1cccc(N=CC2=C(O)CCCC2=O)c1	inconclusive: 35.5 µM [inhibitor, single point]	–
CC(=O)c1ccc(NC(=O)CSc2nc3nn(-c4ccccc4)c(=O)c-3c3n2CCCCC3)cc1	–	inactive: 23.8%
COc1ccc(OCc2cc(C(=O)NC3Cc4ccccc4C3)no2)c(Cl)c1	inconclusive: 0.562 µM [inhibitor, full curve, poor fit]	–
C[C@@H](C(=O)OCC(=O)Nc1cc(S(=O)(=O)N2CCOCC2)ccc1Cl)N1C(=O)C2CCCCC2C1=O (stereo partly drawn)	inconclusive: 1.26 µM [inhibitor, single point]	–
CCn1c(C)nc2cc(C(=O)N/N=C/c3ccc(OC)cc3)ccc21	inconclusive: 35.5 µM [inhibitor, single point]	–
CC(=O)C(Cc1ccccc1)NC(=O)COC(=O)c1ccc(-n2cnnn2)cc1 (stereo not drawn)	–	inactive: -0.466%
CCc1ccc(-c2cc(C)no2)cc1S(=O)(=O)N1CCN(C(=O)c2ccco2)CC1	–	inactive: -20.1% [at 46.1 µM]
CC1C(c2ccccc2)N(C)C(c2ccccc2)C(C)C1(O)C#Cc1ccccc1 (stereo not drawn)	inconclusive: 0.316 µM [activator, partial curve, poor fit]	–
CCOC(=O)N1CCN(C(=O)CS(=O)(=O)Cc2nc(-c3ccccc3F)oc2C)CC1	–	inactive: 1.24% [at 46.1 µM]
COCCNC(=O)c1ccc2c(c1)ncn2-c1ccc(C)c(Cl)c1	inconclusive: 35.5 µM [inhibitor, single point]	–
COc1ccc(C(CNC(=O)C2CC(=O)N(Cc3ccc(C)cc3)C2)N(C)C)cc1 (stereo not drawn)	inconclusive: 29.1 µM [activator, single point]	–
Cc1cccn2c(=O)c3cc(C(=O)N4CCC5(CC4)OCCO5)n(C)c3nc12	inconclusive: 6.31 µM [inhibitor, full curve]	–
COC(=O)C1Cc2ccccc2CN1C(=O)CCl (stereo not drawn)	active: 7.08 µM	–
CCOC(=O)c1c(NC(=O)c2noc(C)c2[N+](=O)[O-])sc(C(C)=O)c1C	inconclusive: 11.2 µM [activator, partial curve, poor fit]	–
